Square brackets hold non-standard residues; d marks the D form. * marks the point of attachment. ξ: configuration not given here. Chlorambucil = O=C(CCCc1ccc(N(CCCl)CCCl)cc1)*; ξCha = NC(CC1CCCCC1)C(=O)O
Assay: peptide made by a vendor (peptide synthesis; Rink amide MBHA resin (0.56 mmol/g, 100–200 mesh); HBTU/NMM)
Settings: whole synthesis, scale of the general procedure 50 μmol

## Chlorambucil-[ξCha][dR][ξCha][dR][ξCha][dR]-NH2 (SMILES N=C(N)NCCC[C@@H](NC(=O)C(CC1CCCCC1)NC(=O)[C@@H](CCCNC(=N)N)NC(=O)C(CC1CCCCC1)NC(=O)[C@@H](CCCNC(=N)N)NC(=O)C(CC1CCCCC1)NC(=O)CCCc1ccc(N(CCCl)CCCl)cc1)C(N)=O)
  final purity (method not given): >90%
